Results are given in words; binding and its absence hold for the method and conditions named. In cells and extracts the contact can be indirect. Some binding calls cover weakened binding; strength is not graded here.
Assays:
[1] = target: histone acetyltransferase p300 (human (endogenous in A549)) (UniProt Q09472); assay: co-IP; endogenous proteins; A549 cells immunoprecipitated with anti-p300, anti-pCAF or normal IgG, immunoblot; lysis buffer 50 mM Tris pH 8.0, 500 mM NaCl, 0.5% Nonidet P-40, 1 mM dithiothreitol
[2] = target: p300/CBP-associated factor (pCAF) (human (endogenous in A549)) (UniProt Q92831); assay: as above

Sequences of proteins named here, by UniProt entry; tags and fusion partners are left off. Residues count along the entry.
UniProt Q09472: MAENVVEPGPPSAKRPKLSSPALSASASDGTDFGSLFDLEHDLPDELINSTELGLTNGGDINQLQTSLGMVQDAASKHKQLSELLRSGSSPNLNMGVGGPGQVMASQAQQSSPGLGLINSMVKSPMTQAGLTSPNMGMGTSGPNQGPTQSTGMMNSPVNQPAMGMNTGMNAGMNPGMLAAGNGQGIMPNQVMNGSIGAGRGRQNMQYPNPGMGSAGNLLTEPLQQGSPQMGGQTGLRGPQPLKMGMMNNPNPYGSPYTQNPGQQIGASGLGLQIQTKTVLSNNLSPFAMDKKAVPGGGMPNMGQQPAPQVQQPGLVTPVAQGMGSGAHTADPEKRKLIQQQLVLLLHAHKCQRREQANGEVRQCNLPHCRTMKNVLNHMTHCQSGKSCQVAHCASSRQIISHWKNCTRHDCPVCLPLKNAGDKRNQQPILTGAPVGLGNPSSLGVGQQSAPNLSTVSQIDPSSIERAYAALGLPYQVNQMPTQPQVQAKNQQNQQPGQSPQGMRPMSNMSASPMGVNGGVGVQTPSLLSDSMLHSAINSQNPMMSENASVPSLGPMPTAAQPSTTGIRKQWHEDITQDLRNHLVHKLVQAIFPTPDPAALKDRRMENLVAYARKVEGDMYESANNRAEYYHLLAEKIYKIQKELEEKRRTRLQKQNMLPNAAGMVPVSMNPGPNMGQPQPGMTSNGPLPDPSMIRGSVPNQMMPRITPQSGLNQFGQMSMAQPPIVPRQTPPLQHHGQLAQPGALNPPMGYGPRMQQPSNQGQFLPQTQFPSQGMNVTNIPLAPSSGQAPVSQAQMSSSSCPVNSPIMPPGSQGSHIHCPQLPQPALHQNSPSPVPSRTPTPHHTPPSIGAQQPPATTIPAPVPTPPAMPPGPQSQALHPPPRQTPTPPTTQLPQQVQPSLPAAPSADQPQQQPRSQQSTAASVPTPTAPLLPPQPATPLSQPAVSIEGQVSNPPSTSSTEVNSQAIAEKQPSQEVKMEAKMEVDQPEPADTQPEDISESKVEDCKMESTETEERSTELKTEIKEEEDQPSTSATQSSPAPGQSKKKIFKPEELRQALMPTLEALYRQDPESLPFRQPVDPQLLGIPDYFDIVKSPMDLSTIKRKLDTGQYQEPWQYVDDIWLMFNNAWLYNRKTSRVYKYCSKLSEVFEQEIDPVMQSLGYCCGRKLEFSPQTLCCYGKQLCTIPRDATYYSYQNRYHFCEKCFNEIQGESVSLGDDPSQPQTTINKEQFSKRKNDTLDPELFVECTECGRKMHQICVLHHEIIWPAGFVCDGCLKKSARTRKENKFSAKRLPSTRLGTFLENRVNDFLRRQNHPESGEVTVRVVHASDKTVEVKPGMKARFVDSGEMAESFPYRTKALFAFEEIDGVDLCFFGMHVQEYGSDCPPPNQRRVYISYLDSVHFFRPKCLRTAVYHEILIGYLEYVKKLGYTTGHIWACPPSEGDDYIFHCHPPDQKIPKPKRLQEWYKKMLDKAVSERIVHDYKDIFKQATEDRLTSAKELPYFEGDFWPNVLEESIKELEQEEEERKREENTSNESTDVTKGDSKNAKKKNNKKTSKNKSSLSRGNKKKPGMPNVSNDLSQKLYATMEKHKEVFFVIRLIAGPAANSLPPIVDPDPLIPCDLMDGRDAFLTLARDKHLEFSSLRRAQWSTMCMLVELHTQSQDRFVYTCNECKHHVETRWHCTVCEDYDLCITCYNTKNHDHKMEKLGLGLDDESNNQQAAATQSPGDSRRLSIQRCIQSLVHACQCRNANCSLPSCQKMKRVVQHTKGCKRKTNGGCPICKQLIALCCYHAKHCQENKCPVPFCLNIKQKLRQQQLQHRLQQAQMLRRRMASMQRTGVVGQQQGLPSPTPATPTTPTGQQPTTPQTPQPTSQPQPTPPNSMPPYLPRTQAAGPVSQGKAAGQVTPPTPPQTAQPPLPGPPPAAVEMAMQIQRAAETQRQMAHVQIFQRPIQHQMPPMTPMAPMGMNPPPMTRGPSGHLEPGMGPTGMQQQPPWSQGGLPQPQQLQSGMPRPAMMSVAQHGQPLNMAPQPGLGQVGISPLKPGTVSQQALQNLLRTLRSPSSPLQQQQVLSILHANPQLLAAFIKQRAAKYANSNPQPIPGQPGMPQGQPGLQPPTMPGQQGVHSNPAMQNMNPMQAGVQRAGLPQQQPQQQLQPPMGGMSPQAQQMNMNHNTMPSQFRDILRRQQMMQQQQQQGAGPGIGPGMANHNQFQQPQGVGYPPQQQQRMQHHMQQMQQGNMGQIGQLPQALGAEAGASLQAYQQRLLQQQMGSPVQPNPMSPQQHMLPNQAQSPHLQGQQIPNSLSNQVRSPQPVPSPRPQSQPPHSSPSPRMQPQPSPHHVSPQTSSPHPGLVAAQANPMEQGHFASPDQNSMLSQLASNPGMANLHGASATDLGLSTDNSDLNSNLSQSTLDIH
UniProt Q92831: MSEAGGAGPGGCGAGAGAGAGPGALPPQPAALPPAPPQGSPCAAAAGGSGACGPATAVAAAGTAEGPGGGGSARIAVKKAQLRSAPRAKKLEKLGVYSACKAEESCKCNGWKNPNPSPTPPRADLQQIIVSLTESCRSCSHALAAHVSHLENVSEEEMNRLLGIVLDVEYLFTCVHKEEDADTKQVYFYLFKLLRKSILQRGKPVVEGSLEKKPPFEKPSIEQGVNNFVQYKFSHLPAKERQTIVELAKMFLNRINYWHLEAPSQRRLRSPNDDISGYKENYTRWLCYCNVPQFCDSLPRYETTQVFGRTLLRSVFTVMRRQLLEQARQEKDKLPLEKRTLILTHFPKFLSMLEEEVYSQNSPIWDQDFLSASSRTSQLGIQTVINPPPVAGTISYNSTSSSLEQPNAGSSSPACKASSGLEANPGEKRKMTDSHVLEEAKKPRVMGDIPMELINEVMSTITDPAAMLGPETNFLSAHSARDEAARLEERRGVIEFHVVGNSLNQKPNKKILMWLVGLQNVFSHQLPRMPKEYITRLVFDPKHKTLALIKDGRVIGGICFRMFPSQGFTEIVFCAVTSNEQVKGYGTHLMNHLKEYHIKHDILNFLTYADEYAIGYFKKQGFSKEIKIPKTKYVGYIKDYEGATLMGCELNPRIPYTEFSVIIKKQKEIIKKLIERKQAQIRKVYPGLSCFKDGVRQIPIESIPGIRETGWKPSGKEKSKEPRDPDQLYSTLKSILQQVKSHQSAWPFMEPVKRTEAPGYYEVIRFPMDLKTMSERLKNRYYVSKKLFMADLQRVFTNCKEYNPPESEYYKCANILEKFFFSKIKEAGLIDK
UniProt P46531, residues 19-2555: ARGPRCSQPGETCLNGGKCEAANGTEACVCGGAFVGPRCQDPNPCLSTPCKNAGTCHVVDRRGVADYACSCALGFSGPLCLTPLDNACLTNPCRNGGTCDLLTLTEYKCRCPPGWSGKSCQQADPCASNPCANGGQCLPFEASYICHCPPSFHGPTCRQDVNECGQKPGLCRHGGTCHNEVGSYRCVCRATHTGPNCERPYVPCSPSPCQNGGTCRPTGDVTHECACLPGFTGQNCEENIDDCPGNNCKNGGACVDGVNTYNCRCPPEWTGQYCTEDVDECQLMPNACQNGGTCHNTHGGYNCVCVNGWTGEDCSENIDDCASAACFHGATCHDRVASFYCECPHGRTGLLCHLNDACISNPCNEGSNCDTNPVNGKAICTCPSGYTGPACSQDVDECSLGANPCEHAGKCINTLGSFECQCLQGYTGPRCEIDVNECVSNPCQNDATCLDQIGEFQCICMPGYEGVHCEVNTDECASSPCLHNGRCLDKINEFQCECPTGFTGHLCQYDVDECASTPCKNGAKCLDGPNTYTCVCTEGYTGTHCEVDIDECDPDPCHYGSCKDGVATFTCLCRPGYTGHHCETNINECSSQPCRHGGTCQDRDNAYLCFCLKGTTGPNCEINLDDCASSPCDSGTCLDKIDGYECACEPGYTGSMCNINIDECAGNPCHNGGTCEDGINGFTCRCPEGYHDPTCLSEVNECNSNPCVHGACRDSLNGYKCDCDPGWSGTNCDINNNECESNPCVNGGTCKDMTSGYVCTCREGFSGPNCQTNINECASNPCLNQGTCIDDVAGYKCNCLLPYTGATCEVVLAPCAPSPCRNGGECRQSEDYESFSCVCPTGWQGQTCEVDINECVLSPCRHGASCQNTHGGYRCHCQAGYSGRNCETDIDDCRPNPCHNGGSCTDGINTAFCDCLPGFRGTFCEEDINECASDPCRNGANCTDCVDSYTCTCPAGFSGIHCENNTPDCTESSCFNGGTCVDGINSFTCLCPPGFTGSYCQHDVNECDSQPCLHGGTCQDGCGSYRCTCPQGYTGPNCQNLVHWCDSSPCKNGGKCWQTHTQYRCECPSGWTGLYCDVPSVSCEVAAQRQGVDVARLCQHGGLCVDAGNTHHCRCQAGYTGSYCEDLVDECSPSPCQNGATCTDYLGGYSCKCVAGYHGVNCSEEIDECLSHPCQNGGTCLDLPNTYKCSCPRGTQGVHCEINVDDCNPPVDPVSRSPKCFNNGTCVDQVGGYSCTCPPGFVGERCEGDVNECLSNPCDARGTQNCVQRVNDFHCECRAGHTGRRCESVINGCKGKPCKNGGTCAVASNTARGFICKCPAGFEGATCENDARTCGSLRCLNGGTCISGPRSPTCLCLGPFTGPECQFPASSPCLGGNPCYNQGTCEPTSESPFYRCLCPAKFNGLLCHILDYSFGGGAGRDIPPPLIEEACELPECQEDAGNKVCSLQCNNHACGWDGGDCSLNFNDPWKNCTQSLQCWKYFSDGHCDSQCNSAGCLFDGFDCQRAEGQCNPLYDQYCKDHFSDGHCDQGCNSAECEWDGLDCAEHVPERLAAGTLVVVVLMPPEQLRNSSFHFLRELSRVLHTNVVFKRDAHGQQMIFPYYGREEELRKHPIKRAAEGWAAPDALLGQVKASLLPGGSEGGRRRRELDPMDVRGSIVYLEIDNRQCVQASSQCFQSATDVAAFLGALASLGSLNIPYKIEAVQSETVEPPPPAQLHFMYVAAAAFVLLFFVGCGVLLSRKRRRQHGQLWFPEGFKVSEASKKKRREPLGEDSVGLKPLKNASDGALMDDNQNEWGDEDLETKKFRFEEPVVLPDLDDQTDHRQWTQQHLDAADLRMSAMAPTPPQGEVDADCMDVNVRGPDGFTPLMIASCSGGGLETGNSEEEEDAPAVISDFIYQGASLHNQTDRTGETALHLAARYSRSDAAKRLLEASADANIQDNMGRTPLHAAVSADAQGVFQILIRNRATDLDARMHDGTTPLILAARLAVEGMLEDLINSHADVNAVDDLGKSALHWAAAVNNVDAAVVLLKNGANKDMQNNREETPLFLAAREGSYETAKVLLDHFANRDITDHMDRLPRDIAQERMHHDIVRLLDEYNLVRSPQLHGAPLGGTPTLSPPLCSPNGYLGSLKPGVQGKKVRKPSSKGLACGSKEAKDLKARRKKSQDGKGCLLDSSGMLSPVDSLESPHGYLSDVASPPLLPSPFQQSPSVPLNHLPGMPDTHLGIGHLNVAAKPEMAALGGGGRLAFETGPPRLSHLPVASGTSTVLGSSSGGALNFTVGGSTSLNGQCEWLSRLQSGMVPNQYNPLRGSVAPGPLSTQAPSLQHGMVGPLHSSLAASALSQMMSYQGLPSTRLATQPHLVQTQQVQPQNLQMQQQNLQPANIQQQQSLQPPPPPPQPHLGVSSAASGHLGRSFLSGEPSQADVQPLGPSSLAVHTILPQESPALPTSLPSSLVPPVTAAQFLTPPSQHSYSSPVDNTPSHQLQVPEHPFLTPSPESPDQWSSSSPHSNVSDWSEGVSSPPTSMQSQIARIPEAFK

binding [1]: binds
binding [2]: binds
Substance: Notch1 (endogenous) (from UniProt P46531 19-2555) (receptor)
